Test results from paper PMC11417337.
No constants are given. Whether binding was seen depends on the method and setting. Binding seen in cells or lysates may run through a third protein. Some entries that bind do so weakly or less than the wild type.

Chains of the proteins cited; added tags and fusions are not shown. Residues count along the entry.
UniProt P48678, residues 1-647: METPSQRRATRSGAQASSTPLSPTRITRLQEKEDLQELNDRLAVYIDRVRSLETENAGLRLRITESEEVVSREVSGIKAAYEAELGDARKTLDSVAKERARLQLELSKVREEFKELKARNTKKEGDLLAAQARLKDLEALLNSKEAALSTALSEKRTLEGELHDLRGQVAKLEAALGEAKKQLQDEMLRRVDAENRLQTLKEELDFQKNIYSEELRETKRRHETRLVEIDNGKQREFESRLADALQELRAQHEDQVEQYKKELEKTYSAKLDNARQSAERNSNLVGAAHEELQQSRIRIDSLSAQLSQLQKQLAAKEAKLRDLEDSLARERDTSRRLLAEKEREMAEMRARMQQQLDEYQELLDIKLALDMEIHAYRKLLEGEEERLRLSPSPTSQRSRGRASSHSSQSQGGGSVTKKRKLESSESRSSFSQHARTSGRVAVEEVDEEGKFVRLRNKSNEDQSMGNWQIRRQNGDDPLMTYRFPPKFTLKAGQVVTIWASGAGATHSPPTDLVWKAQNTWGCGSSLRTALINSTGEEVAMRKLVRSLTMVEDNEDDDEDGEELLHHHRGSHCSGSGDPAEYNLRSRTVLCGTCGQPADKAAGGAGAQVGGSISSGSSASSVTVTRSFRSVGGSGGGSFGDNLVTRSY

B1: LAP2α ΔN mutant (residues 186-693) (domain or fragment, UniProt Q61033 186-693)
chain: DEGKKKEHKKVKSARDCVPFSELASTPSGAFFQGISFPEISTRPPLGRTELQAAKKVQTTKRDPPRETCTDTALPGKGQTHKLAPGRSLFIPSESSYDRCVEKSSSPSSQREFAARLVSAAASPSLIRETTTTYSKDIVENICRGGKSRAQPLRAEEPGVSDQSVFSSEREVLQESERSQVISPPLAQAIRDYVNSLLVQGGVGSLPGTSDSVPTLDVENICKRLSQSSYQDSESLSPPRKVPRLSEKPARGGDSGSCVAFQNTPGSEHRSSFAKSVVSHSLTTLGVEVSKPPPQHDKIEASEPSFPLHESILKVVEEEWQQIDRQLPSVACRYPVSSIEAARILSVPKVDDEILGFISEATPRAATQASSTESCDKHLDLALCRSYEAAASALQIAAHTAFVAKSLQADISQAAQIINSDPSDAQQALRILNRTYDAASYLCDAAFDEVRMSACAMGSSTMGRRYLWLKDCKISPASKNKLTVAPFKGGTLFGGEVHKVIKKRGNKQ
B2: LAP2α ΔC mutant (residues 1-414) (domain or fragment, UniProt Q61033 1-414)
chain: MPEFLEDPSVLTKDKLKSELVANNVTLPAGEQRKDVYVQLYLQHLTARNRPPLAAGANSKGPPDFSSDEEREPTPVLGSGASVGRGRGAVGRKATKKTDKPRLEDKDDLDVTELSNEELLDQLVRYGVNPGPIVGTTRKLYEKKLLKLREQGTESRSSTPLPTVSSSAENTRQNGSNDSDRYSDNDEGKKKEHKKVKSARDCVPFSELASTPSGAFFQGISFPEISTRPPLGRTELQAAKKVQTTKRDPPRETCTDTALPGKGQTHKLAPGRSLFIPSESSYDRCVEKSSSPSSQREFAARLVSAAASPSLIRETTTTYSKDIVENICRGGKSRAQPLRAEEPGVSDQSVFSSEREVLQESERSQVISPPLAQAIRDYVNSLLVQGGVGSLPGTSDSVPTLDVENICKRLSQSS
B3: barrier-to-autointegration factor (BAF) (protein, UniProt O54962 1-89)
chain: MTTSQKHRDFVAEPMGEKPVGSLAGIGDVLSKRLEERGFDKAYVVLGQFLVLKKDEDLFREWLKDTCGANAKQSRDCFGCLREWCDAFL
B4: LAP2α C-terminal mutant (residues 414-693) (domain or fragment, UniProt Q61033 414-693)
chain: SYQDSESLSPPRKVPRLSEKPARGGDSGSCVAFQNTPGSEHRSSFAKSVVSHSLTTLGVEVSKPPPQHDKIEASEPSFPLHESILKVVEEEWQQIDRQLPSVACRYPVSSIEAARILSVPKVDDEILGFISEATPRAATQASSTESCDKHLDLALCRSYEAAASALQIAAHTAFVAKSLQADISQAAQIINSDPSDAQQALRILNRTYDAASYLCDAAFDEVRMSACAMGSSTMGRRYLWLKDCKISPASKNKLTVAPFKGGTLFGGEVHKVIKKRGNKQ

biological target: lamin A/C (mouse (endogenous in mouse dermal fibroblasts)) (UniProt P48678); assay: co-IP; endogenous lamin A/C immunoprecipitated with the E1 anti-lamin A/C antibody from the soluble fraction of mouse dermal fibroblasts (IP buffer: 20 mM Tris-HCl pH 7.5, 150 mM NaCl, 2 mM EGTA, 2 mM MgCl2, 0.5% NP-40, 1 mM DTT, benzonase), western blot; Figure 4D: untransfected or control siRNA cells; Figure 5D: cells untreated or treated with rapamycin

| binding | Binder |
| --- | --- |
| no binding | B1 |
| no binding | B2 |
| binds | B3 |
| no binding | B4 |
